Measured values as given in US20240182538A1.
Results are given in words; binding and its absence hold for the method and conditions named. In cells and extracts the contact can be indirect. Some results given as binding are weak or reduced against the parent protein; the word gives no strength.

The chains behind the UniProt entries cited, without tags or fusion partners. Where a name states a change or a piece, a line headed by the entry shows the natural chain unless it says otherwise.
UniProt Q16666: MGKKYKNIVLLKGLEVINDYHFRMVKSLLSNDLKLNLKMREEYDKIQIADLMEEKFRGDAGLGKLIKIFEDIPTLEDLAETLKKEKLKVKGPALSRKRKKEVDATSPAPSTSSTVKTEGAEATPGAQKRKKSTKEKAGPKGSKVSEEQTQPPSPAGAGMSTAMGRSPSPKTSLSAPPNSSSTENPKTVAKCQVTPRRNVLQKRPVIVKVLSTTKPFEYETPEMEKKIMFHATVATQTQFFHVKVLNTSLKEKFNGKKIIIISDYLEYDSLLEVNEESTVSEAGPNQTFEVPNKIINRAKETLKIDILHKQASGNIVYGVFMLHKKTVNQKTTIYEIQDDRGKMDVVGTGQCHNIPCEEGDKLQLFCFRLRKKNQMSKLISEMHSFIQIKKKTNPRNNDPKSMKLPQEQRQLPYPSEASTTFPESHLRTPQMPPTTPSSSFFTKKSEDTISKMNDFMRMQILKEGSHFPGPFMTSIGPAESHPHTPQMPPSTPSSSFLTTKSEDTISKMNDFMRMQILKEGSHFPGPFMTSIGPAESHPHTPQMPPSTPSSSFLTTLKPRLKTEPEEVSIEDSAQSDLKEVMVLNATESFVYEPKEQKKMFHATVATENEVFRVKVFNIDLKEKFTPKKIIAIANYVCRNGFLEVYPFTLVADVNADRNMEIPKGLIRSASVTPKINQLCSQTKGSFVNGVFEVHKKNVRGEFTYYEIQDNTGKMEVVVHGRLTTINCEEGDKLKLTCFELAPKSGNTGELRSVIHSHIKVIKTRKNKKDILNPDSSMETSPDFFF

Legend:
[1] = target: T1, human TANK-binding kinase 1 (TBK1), endogenous in THP-1 cells and primary human MDMs (human) (UniProt Q9UHD2); experiment: summary of co-IP experiments (FIG. 4)
T1 sequence: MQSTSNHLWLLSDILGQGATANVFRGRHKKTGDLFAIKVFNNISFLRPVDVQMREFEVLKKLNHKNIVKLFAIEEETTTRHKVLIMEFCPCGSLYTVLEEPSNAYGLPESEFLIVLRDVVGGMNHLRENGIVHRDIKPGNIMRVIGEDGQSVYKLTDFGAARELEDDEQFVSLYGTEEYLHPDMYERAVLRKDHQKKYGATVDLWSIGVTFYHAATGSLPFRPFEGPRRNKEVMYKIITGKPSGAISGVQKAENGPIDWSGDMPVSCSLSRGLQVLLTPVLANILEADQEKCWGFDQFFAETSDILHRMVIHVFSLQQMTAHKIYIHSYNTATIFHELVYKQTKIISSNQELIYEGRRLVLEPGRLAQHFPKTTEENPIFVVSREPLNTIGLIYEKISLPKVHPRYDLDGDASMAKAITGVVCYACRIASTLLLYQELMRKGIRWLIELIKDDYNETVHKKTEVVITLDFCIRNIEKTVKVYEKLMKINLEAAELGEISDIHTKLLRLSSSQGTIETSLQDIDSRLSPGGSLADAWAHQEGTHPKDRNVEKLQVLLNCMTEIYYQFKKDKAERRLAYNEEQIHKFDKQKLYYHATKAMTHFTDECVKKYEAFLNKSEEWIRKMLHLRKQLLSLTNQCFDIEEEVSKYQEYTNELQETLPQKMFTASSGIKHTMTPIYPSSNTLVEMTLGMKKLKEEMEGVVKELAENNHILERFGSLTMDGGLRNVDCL

[2] = target: T1, human TANK-binding kinase 1 (TBK1), endogenous in THP-1 cells and primary human MDMs (human); experiment: co-IP with anti-IFI16 from STING KO THP1 cells, immunoblot (FIG. 4d)
[3] = target: T1, human TANK-binding kinase 1 (TBK1), endogenous in THP-1 cells and primary human MDMs (human); experiment: co-IP with anti-IFI16 from cytosolic extracts of unstimulated THP1 cells, immunoblot (FIG. 4a, lane 4)
[4] = target: T2, phosphorylated human TBK1, endogenous in THP-1 cells (human) (UniProt Q9UHD2); experiment: co-IP with anti-IFI16 from cytosolic extracts of dsDNA-stimulated THP1 cells, immunoblot (FIG. 4a, lane 5-6)
T2 sequence (chain, phosphorylated (site not printed; detected with anti-phospho-TBK1 antibody)): T1 sequence

Measured: binding

human IFI16 (Interferon-gamma-inducible protein 16), endogenous in THP-1 cells and primary human MDMs (from UniProt Q16666 1-785)
binds: all assays above
